Laboratory results: PubChem BioAssay AID743454 (Peter MacCallum Cancer Centre, 2014)

Assay: 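Genes whose loss kills vorinostat-resistant colon cancer cells under vorinostat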 (primary screen)
System: human HCT116-VR colon cancer cells, selected for vorinostat resistance
Reagents: siRNA pool against human genes, 40 nM siRNA pool
Time to read-out: vorinostat for 24 h, read-out about 72 h after transfection
Conditions: vorinostat at 2.5 µM final
Measured: 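Two measures, CellTiter-Fluor viability and luminescent caspase 3/7 activity, each as fold change against same-plate mock wells, mean of duplicates, then screen-wide robust z-score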
Scale: viability robust z-score: higher = more viable cells than screen typical; caspase robust z-score: higher = more caspase 3/7 activity than screen typical
Rule for the call: 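Hits are knock-downs in viability class RV1/RV2 or caspase class CA1/CA2, excluding ones that killed cells in the no-drug cell-count arm; hits then retested with single siRNAs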
Here is an unselected part of about 18,000 reagents. 450 of them (2.5%) count as active. 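Single biological run; no consistent viability z cut-off exists, so the class columns, not z-scores, define the calls.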

gene knocked down | viability hit class | caspase hit class | viability robust z-score | caspase robust z-score | call
TRIM63 | no change | no change | -2.83 | 2.5 | inactive
BAMBI | no change | no change | 0.86 | -0.23 | inactive
WNK4 | no change | no change | -0.02 | 4.03 | inactive
STX8 | no change | no change | 0.19 | -0.81 | inactive
MRPL43 | no change | no change | 0.18 | -0.64 | inactive
GDF2 | no change | no change | -0.12 | -0.8 | inactive
OPTC | no change | no change | 0.68 | 0.02 | inactive
VN1R1 | no change | no change | -1.38 | 3.5 | inactive
NKPD1 | no change | no change | 1.27 | -0.38 | inactive
RAP1GAP2 | no change | no change | 0.77 | -0.65 | inactive
LHX4 | no change | no change | 0.7 | -0.4 | inactive
LUC7L3 | no change | no change | -1.46 | -1.44 | inactive
GJD2 | no change | no change | -0.4 | 2.92 | inactive
FOXN3 | no change | no change | 0.4 | -0.19 | inactive
GATAD2A | no change | no change | 0.08 | 4.22 | inactive
RAB6D | no change | no change | 0.02 | -0.4 | inactive
ZNF625 | no change | no change | -0.68 | -0.76 | inactive
RPL10L | no change | no change | -1.07 | -0.29 | inactive
CIMAP1D | no change | no change | 0.67 | -0.51 | inactive
YWHAQ | no change | no change | 0.86 | 0.15 | inactive
UGT1A1 | no change | no change | 0.24 | 0.76 | inactive
LIPN | no change | no change | -1.02 | 0.28 | inactive
TRAPPC1 | no change | no change | -1.5 | 0.73 | inactive
AP1G2 | no change | no change | -0.48 | -0.1 | inactive
CLTCL1 | no change | no change | 0.86 | -0.27 | inactive
POMZP3 | no change | no change | -0.28 | 1.45 | inactive
CLDN18 | no change | no change | 0.76 | -0.55 | inactive
CLINT1 | no change | no change | -1.7 | 0.92 | inactive
DDX6 | no change | no change | -0.12 | -0.86 | inactive
KRT10-AS1 | no change | no change | 0.99 | -0.92 | inactive
ZCCHC13 | no change | no change | -0.14 | 0.62 | inactive
NPAP1 | no change | no change | -1.38 | 1.32 | inactive
STMN4 | no change | no change | -1.38 | 0.92 | inactive
MYO3A | no change | no change | 0.06 | 1.04 | inactive
CCDC85B | no change | no change | -1.12 | 0.29 | inactive
DNAH7 | no change | no change | 0.31 | 0.18 | inactive
HPN | no change | no change | -0.01 | 1.25 | inactive
HTR3D | no change | no change | 0.58 | -0.37 | inactive
BTBD8 | no change | no change | 1.29 | -0.48 | inactive
SNRPC | no change | no change | -2.66 | -1.09 | inactive
KLHL42 | no change | no change | 0 | -0.55 | inactive
NF2 | no change | no change | -0.61 | 3.3 | inactive
NSUN2 | no change | no change | -1.15 | -0.36 | inactive
AP1S1 | no change | no change | 0.89 | 2.25 | inactive
EFHD1 | no change | no change | -0.57 | -1.22 | inactive
SUGCT | no change | no change | -1.64 | -0.94 | inactive
BTBD10 | no change | no change | -1.35 | 0.46 | inactive
ZNF24 | no change | no change | -0.21 | 1.65 | inactive
EAF1 | no change | no change | -1.43 | 1.09 | inactive
ARV1 | no change | no change | 1.17 | -0.45 | inactive
MCM10 | no change | no change | 0.09 | 1.84 | inactive
DNAAF6 | no change | no change | -1.64 | 3.77 | inactive
NR0B1 | no change | no change | 0.66 | -0.93 | inactive
KMT5A | no change | no change | -1.33 | 2.47 | inactive
RAB6C | no change | no change | 0.05 | -0.86 | inactive
SOAT2 | no change | no change | -1.05 | -0.62 | inactive
AIPL1 | no change | no change | 0.2 | -0.51 | inactive

Ordered by “viability robust z-score” (descending): some entries from above.
gene knocked down | viability hit class | caspase hit class | viability robust z-score | caspase robust z-score | call
NKPD1 | no change | no change | 1.27 | -0.38 | inactive
RAP1GAP2 | no change | no change | 0.77 | -0.65 | inactive
VN1R1 | no change | no change | -1.38 | 3.5 | inactive
